This is one part of the list. Single values are uncertain, as repeats are few or missing.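 The apoptosis fraction was the count of cleaved-PARP antibody-stained nuclei relative to all DNA-stained nuclei, imaged in 1,536-well plates. Screening doses were set so most cells survived, and baseline and induced cleaved-PARP levels vary greatly across cell lines.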

In this experiment the test system is UACC62. In words: cleaved PARP positive nuclei fraction relative to DMSO control; melanoma cells; higher = more apoptosis. The conditions noted are these: library dose: low library concentration; 72 h.
In the case of `Nc1ncn([C@H]2C[C@H](O)[C@@H](CO)O2)c(=O)n1` [decitabine] + COc1ccc(-c2ccc3c(N4CCOCC4)nc(N4C[C@@H](C)O[C@@H](C)C4)nc3n2)cc1CO [KU0063794] (first compound 0.1 µM, partner dose 0.02 µM), the “cleaved PARP positive nuclei fraction” value was 1070%. With `CS(=O)(=O)CCNCc1ccc(-c2ccc3ncnc(Nc4ccc(OCc5cccc(F)c5)c(Cl)c4)c3c2)o1` [lapatinib] + O=S(=O)(c1ccccc1)N(CC(F)(F)F)c1ccc(C(O)(C(F)(F)F)C(F)(F)F)cc1 [T0901317] (first compound 0.8 µM, partner dose 1.4 µM) the figure was 133%.

As for `Nc1ccn([C@@H]2O[C@H](CO)[C@@H](O)C2(F)F)c(=O)n1` [gemcitabine] + CC1(C)NC(=O)N(c2ccc([N+](=O)[O-])c(C(F)(F)F)c2)C1=O [nilutamide] (first compound 0.0004 µM, partner dose 1 µM), the “cleaved PARP positive nuclei fraction” value is 145%. As to `CCCS(=O)(=O)Nc1ccc(F)c(C(=O)c2c[nH]c3ncc(Cl)cc23)c1F` + O=C1NC(=O)/C(=C/c2ccc(-c3ccc(F)cc3O)o2)S1 [AS252424] (first compound 0.08 µM, partner dose 1 µM), the “cleaved PARP positive nuclei fraction” value amounted to 232%. On to `CNC(=O)c1cc(Oc2ccc(NC(=O)Nc3ccc(Cl)c(C(F)(F)F)c3)cc2)ccn1` [sorafenib] + C[C@@H]1CCN(C(=O)CC#N)C[C@@H]1N(C)c1ncnc2[nH]ccc12 [CP690550] (first compound 0.4 µM, partner dose 1 µM), for which the “cleaved PARP positive nuclei fraction” value was determined as 143%. With `Cc1cc(Nc2cc(N3CCN(C)CC3)nc(/C=C/c3ccccc3)n2)n[nH]1` + CN(C)S(=O)(=O)c1ccc2c(c1)/C(=C/c1cc3c([nH]1)CCCC3)C(=O)N2 [SU6656] (first compound 0.04 µM, partner dose 0.4 µM) the figure was 69.7%.

With `Nc1ncn([C@H]2C[C@H](O)[C@@H](CO)O2)c(=O)n1` [decitabine] + CCCCCCCCCCCC1=C(O)C(=O)C=C(O)C1=O [Embelin] (first compound 0.1 µM, partner dose 1.2 µM), the “cleaved PARP positive nuclei fraction” value amounted to 147%. With `Nc1nc(F)nc2c1ncn2[C@@H]1O[C@H](CO)[C@@H](O)[C@@H]1O` [fludarabine] + CCCCCCCCCCCC1=C(O)C(=O)C=C(O)C1=O [Embelin] (first compound 0.2 µM, partner dose 1.2 µM), the “cleaved PARP positive nuclei fraction” value is 43.9%.

`O=C(O)c1ccc2c(c1)nc(Nc1cccc(Cl)c1)c1ccncc12` + COc1ccc2c(c1)CCC1C2CCC2(C)C(NCCCCCCN3C(=O)C=CC3=O)CCC12 [U73122] (first compound 0.4 µM, partner dose 0.4 µM): the “cleaved PARP positive nuclei fraction” value was determined as 90.1%. To `Nc1ccn([C@@H]2O[C@H](CO)[C@@H](O)C2(F)F)c(=O)n1` [gemcitabine] + CO[C@@H]1[C@H](N(C)C(=O)c2ccccc2)C[C@H]2O[C@]1(C)n1c3ccccc3c3c4c(c5c6ccccc6n2c5c31)C(=O)NC4 [Midostaurin] (first compound 0.0004 µM, partner dose 0.08 µM) belongs 90.5%; to `CN1CCN(c2ccc3nc(-c4c(N)c5c(F)cccc5[nH]c4=O)[nH]c3c2)CC1` [Dovitinib] + O=C(O)C(=O)Nc1sc2c(c1C(=O)O)CCNC2 [TCS401] (first compound 0.1 µM, partner dose 1.66667 µM), 98.7%; to `Nc1ncn([C@H]2C[C@H](O)[C@@H](CO)O2)c(=O)n1` [decitabine] + COC(=O)c1sccc1S(=O)(=O)Nc1ccc(Nc2ccccc2)cc1OC [GSK0660] (first compound 0.1 µM, partner dose 1 µM), 157%. To `Cc1cc(Nc2cc(N3CCN(C)CC3)nc(/C=C/c3ccccc3)n2)n[nH]1` + Cc1cc(N2CCOCC2)cc2[nH]c(-c3c(NC[C@@H](O)c4cccc(Cl)c4)cc[nH]c3=O)nc12 [BMS536924] (first compound 0.04 µM, partner dose 0.2 µM) belongs 320%. To `Cn1c(=O)n(-c2ccc(C(C)(C)C#N)cc2)c2c3cc(-c4cnc5ccccc5c4)ccc3ncc21` + NC(=O)Nc1cc(-c2cccc(F)c2)sc1C(=O)N[C@H]1CCCNC1 [AZD7762] (first compound 0.004 µM, partner dose 0.02 µM) belongs 75.5%; to `C=C(c1ccc(C(=O)O)cc1)c1cc2c(cc1C)C(C)(C)CCC2(C)C` [Bexarotene] + O=C(Nc1ccccc1)c1cc([N+](=O)[O-])ccc1Cl [GW9662] (first compound 2 µM, partner dose 2 µM), 100%.

With `CNC(=O)c1cc(Oc2ccc(NC(=O)Nc3ccc(Cl)c(C(F)(F)F)c3)cc2)ccn1` [sorafenib] + COC(=O)c1sccc1S(=O)(=O)Nc1ccc(Nc2ccccc2)cc1OC [GSK0660] (first compound 0.4 µM, partner dose 1 µM), the “cleaved PARP positive nuclei fraction” value was found to be 131%. With `CNC(=O)c1cc(Oc2ccc(NC(=O)Nc3ccc(Cl)c(C(F)(F)F)c3)cc2)ccn1` [sorafenib] + CCCCCCCCCCCC1=C(O)C(=O)C=C(O)C1=O [Embelin] (first compound 0.4 µM, partner dose 1.2 µM) the figure was 74.4%. To `CS(=O)(=O)CCNCc1ccc(-c2ccc3ncnc(Nc4ccc(OCc5cccc(F)c5)c(Cl)c4)c3c2)o1` [lapatinib] + CN(C)S(=O)(=O)c1ccc2c(c1)/C(=C/c1cc3c([nH]1)CCCC3)C(=O)N2 [SU6656] (first compound 0.8 µM, partner dose 0.4 µM) belongs 140%. To `C[C@@H](Oc1cc(-c2cnn(C3CCNCC3)c2)cnc1N)c1c(Cl)ccc(F)c1Cl` [Crizotinib] + CCCCCCCCCCCC1=C(O)C(=O)C=C(O)C1=O [Embelin] (first compound 0.2 µM, partner dose 1.2 µM) belongs 79.3%. Take `Nc1nc(F)nc2c1ncn2[C@@H]1O[C@H](CO)[C@@H](O)[C@@H]1O` [fludarabine] + Cc1cc(N2CCOCC2)cc2[nH]c(-c3c(NC[C@@H](O)c4cccc(Cl)c4)cc[nH]c3=O)nc12 [BMS536924] (first compound 0.2 µM, partner dose 0.2 µM): the “cleaved PARP positive nuclei fraction” value was determined as 55.3%. With `Cc1cc(Nc2cc(N3CCN(C)CC3)nc(/C=C/c3ccccc3)n2)n[nH]1` + COc1ccc(COc2ccc(Cc3cnc(N)nc3N)cc2OC)cc1 [GW2580] (first compound 0.04 µM, partner dose 1 µM) the figure was 133%. Take `CNC(=O)c1cc(Oc2ccc(NC(=O)Nc3ccc(Cl)c(C(F)(F)F)c3)cc2)ccn1` [sorafenib] + NCC(=O)Nc1ccc(-n2nc(C(F)(F)F)cc2-c2ccc3c(ccc4ccccc43)c2)cc1 [OSU03012] (first compound 0.4 µM, partner dose 1 µM): the “cleaved PARP positive nuclei fraction” value is 80.2%.

`Cc1cc(Nc2cc(N3CCN(C)CC3)nc(/C=C/c3ccccc3)n2)n[nH]1` + OCCn1cc(-c2cnc3nnn(Cc4ccc5ncccc5c4)c3n2)cn1 [PF04217903] (first compound 0.04 µM, partner dose 1 µM): the “cleaved PARP positive nuclei fraction” value was found to be 231%.

As for `Nc1nc(F)nc2c1ncn2[C@@H]1O[C@H](CO)[C@@H](O)[C@@H]1O` [fludarabine] + CCc1ccc(CCOc2ccc(CC3SC(=O)NC3=O)cc2)nc1 [pioglitazone] (first compound 0.2 µM, partner dose 2 µM), the “cleaved PARP positive nuclei fraction” value worked out at 106%. To `CS(=O)(=O)CCNCc1ccc(-c2ccc3ncnc(Nc4ccc(OCc5cccc(F)c5)c(Cl)c4)c3c2)o1` [lapatinib] + OCCn1cc(-c2cnc3nnn(Cc4ccc5ncccc5c4)c3n2)cn1 [PF04217903] (first compound 0.8 µM, partner dose 1 µM) belongs 74.3%. For `CNC(=O)c1cc(Oc2ccc(NC(=O)Nc3ccc(Cl)c(C(F)(F)F)c3)cc2)ccn1` [sorafenib] + Cc1cc([N+](=O)[O-])ccc1NS(=O)(=O)c1cc(Cl)ccc1Cl [FH535] (first compound 0.4 µM, partner dose 1 µM), the “cleaved PARP positive nuclei fraction” value was determined as 93.7%. With `CN1CCN(c2ccc3nc(-c4c(N)c5c(F)cccc5[nH]c4=O)[nH]c3c2)CC1` [Dovitinib] + COc1ccc2c(c1)CCC1C2CCC2(C)C(NCCCCCCN3C(=O)C=CC3=O)CCC12 [U73122] (first compound 0.1 µM, partner dose 0.4 µM) the figure was 127%; with `O=C(O)[C@@H]1[O][Sb](=[O])([O][Sb]2(=[O])[O][C@H]([C@H](O)CO)[C@H](O)[C@H](C(=O)O)[O]2)[O][C@H]([C@H](O)CO)[C@@H]1O` (stereo partly specified) [stibogluconate] + COc1cc(N2CCC(N3CCN(C)CC3)CC2)ccc1Nc1ncc(Cl)c(Nc2ccccc2S(=O)(=O)C(C)C)n1 [NVP-TAE684] (first compound 2 µM, partner dose 0.08 µM), 54.3%; with `CCCS(=O)(=O)Nc1ccc(F)c(C(=O)c2c[nH]c3ncc(Cl)cc23)c1F` + N#Cc1c(O)c2c(-c3ccc(-c4ccccc4O)cc3)csc2[nH]c1=O [A769662] (first compound 0.08 µM, partner dose 2 µM), 154%. With `CN1CCN(c2ccc3nc(-c4c(N)c5c(F)cccc5[nH]c4=O)[nH]c3c2)CC1` [Dovitinib] + Cc1cc(N2CCOCC2)cc2[nH]c(-c3c(NC[C@@H](O)c4cccc(Cl)c4)cc[nH]c3=O)nc12 [BMS536924] (first compound 0.1 µM, partner dose 0.2 µM) the figure was 331%; with `C[C@@H](Oc1cc(-c2cnn(C3CCNCC3)c2)cnc1N)c1c(Cl)ccc(F)c1Cl` [Crizotinib] + COc1ccc(-c2ccc3c(N4CCOCC4)nc(N4C[C@@H](C)O[C@@H](C)C4)nc3n2)cc1CO [KU0063794] (first compound 0.2 µM, partner dose 0.02 µM), 96.5%.

Values taken from the supplement of paper PMC4604168 (melanoma cell lines).
